Assay results as given in publication PMC3605288.
These are yes or no findings as the source states them, for the method shown. In cells and extracts the contact can be indirect. Some entries that bind do so weakly or less than the wild type.

Sequences of proteins named here, by UniProt entry; tags and fusion partners are left off. A change or cut given only in a name is not applied to a line headed by its entry.
UniProt Q62879: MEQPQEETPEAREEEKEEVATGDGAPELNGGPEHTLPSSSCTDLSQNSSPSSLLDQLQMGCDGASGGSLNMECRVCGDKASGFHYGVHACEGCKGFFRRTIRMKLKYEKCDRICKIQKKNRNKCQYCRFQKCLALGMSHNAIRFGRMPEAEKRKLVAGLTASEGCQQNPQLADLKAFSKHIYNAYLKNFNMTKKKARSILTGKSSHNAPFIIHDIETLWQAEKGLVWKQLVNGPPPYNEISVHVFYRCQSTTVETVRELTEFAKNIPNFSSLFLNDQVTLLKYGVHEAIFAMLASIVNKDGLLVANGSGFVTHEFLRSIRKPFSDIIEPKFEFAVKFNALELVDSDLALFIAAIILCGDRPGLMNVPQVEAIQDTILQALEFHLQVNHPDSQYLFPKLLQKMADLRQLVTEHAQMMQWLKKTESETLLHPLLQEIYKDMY
UniProt P06536: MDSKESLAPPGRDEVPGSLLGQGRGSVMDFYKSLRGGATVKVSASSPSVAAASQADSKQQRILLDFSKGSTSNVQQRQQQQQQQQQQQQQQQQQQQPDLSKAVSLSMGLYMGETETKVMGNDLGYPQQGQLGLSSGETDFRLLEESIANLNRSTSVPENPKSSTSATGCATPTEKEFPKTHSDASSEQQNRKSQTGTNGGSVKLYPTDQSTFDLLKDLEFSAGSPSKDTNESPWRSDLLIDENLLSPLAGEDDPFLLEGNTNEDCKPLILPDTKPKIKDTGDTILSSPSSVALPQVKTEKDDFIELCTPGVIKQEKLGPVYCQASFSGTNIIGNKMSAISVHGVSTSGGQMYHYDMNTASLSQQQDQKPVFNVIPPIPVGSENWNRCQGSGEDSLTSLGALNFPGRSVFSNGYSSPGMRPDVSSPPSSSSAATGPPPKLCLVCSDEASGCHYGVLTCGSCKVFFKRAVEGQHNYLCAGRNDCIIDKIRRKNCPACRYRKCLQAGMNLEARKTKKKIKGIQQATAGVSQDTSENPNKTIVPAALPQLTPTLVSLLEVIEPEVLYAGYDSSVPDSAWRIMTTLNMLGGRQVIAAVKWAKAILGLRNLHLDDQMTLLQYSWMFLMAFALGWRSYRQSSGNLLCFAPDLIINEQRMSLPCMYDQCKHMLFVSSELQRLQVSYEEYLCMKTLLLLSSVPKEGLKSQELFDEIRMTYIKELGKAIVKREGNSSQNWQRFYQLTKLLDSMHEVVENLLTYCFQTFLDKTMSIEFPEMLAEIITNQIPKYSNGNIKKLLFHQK

Biological target: peroxisome proliferator-activated receptor β/δ (rat (endogenous in L6 myotubes)) (UniProt Q62879)
Experiment: co-IP; whole cell lysates (50 µg protein, Pierce IP Lysis Buffer) of L6 myotubes treated 24 h with 1 µM dexamethasone or vehicle; immunoprecipitated with goat anti-human PPARβ/δ antibody (Catch and Release v2.0 spin columns, overnight, 4°C), blotted for GR and PPARβ/δ

binding: binds
Substance: glucocorticoid receptor (from UniProt P06536 1-795)
